Article PMC9945523
No constants are given. Whether binding was seen depends on the method and setting. A result given as binding can be weak or reduced; the word gives no strength. Sequences can lack the tags named with a protein. For some assays here: Binding seen in cells or lysates may run through a third protein.

Columns and labels:
[1] = biological target: GST-snapin fusion protein (not stated (worker bees)); assay: pull-down; GST pull-down: purified GST-snapin on glutathione agarose beads (4°C, 3 h), then overnight at 4°C with 0.1 mg/ml His-VP2; western blot with anti-His antibody; GST as negative control; both purified
[2] = biological target: snapin-Flag (not stated (worker bees)); assay: co-IP; BHK cells co-transfected with pTT5-VP2-His and pTT5-snapin-Flag, 48 h; lysate precipitated with Flag-tagged antibody and Protein A/G Plus-Agarose at 4°C; western blot with anti-His and anti-Flag

B1: His-VP2 (protein, UniProt Q8B3M2 212-464)
chain: MDNPNPGPDGEGEVELEKDSNVVLTTQRDPSTSIPAPVSVKWSRWTSNDVVDDYATITSRWYQIAEFVWSKDDPFDKELARLILPRALLSSIEANSDAICDVPNTIPFKVHAYWRGDMEVRVQINSNKFQVGQLQATWYYSDHENLNISSKRSVYGFSQMDHALISASASNEAKLVIPYKHVYPFLPTRIVPDWTTGILDMGALNIRVIAPLRMSATGPTTCNVVVFIKLNNSEFTGTSSGKFYASQIRAKPE
[1]
  binding: binds

B2: VP2-His (protein, UniProt Q8B3M2 212-464)
chain: B1 chain
[2]
  binding: binds
